Measured values reported in paper PMC11582751.

Sequences of proteins named here, by UniProt entry; tags and fusion partners are left off.
UniProt O14646: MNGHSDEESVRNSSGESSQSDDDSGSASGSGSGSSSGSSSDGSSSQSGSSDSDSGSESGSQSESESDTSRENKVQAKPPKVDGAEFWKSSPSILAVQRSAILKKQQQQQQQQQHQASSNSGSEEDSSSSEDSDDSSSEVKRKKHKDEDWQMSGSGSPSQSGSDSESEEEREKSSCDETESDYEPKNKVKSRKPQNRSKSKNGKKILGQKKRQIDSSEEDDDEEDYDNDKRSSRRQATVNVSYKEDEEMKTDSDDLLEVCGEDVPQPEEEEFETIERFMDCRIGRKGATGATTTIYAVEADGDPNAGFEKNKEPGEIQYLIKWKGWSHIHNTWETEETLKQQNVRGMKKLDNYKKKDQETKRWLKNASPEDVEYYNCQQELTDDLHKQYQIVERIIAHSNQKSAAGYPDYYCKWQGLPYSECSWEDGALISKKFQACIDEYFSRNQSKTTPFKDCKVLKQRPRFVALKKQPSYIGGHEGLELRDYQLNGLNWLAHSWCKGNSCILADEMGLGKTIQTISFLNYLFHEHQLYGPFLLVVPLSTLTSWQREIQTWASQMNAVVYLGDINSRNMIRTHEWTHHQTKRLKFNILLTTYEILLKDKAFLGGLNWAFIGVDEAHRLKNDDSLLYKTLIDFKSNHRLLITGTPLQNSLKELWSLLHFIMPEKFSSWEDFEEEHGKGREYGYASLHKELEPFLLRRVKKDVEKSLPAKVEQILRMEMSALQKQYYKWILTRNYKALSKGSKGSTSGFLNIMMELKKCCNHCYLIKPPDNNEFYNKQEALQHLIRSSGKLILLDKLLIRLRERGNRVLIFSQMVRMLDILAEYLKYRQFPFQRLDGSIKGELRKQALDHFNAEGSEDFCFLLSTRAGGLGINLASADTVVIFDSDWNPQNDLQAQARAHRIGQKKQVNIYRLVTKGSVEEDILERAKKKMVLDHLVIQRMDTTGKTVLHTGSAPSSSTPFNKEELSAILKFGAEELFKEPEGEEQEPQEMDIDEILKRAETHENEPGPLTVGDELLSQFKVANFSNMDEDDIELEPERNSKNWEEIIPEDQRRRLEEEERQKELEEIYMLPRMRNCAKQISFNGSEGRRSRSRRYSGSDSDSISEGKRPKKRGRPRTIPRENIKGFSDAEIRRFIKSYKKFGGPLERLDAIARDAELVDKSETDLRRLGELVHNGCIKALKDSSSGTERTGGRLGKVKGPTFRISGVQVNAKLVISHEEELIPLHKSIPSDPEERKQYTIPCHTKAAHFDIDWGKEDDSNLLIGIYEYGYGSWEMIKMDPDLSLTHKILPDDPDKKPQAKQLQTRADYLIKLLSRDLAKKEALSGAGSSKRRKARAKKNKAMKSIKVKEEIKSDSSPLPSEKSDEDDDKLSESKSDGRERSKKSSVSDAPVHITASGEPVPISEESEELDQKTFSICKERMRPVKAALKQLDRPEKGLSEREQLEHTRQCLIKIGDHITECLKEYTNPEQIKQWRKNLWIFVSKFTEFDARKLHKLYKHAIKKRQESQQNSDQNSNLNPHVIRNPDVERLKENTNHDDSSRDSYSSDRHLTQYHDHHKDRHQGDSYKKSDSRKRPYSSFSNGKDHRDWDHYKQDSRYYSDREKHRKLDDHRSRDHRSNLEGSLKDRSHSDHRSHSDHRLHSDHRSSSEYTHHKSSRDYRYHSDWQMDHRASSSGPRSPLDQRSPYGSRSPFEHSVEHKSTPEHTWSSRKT
UniProt Q9UJV9: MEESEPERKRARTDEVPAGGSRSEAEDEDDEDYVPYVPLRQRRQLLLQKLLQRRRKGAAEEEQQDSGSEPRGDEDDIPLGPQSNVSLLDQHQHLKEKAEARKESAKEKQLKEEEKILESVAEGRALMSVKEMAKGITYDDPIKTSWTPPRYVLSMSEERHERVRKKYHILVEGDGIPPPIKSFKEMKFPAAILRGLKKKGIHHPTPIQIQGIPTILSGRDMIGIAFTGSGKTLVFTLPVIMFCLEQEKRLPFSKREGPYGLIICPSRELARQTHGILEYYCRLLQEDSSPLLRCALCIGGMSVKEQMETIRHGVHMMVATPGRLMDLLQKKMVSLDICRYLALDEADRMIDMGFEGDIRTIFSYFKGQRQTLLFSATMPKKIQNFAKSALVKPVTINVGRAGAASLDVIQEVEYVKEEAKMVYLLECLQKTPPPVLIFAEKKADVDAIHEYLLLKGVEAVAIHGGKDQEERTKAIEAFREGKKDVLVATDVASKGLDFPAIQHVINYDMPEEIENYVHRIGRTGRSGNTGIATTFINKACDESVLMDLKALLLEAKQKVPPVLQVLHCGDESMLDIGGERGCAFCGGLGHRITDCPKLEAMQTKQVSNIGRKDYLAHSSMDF
UniProt Q9Y4B6: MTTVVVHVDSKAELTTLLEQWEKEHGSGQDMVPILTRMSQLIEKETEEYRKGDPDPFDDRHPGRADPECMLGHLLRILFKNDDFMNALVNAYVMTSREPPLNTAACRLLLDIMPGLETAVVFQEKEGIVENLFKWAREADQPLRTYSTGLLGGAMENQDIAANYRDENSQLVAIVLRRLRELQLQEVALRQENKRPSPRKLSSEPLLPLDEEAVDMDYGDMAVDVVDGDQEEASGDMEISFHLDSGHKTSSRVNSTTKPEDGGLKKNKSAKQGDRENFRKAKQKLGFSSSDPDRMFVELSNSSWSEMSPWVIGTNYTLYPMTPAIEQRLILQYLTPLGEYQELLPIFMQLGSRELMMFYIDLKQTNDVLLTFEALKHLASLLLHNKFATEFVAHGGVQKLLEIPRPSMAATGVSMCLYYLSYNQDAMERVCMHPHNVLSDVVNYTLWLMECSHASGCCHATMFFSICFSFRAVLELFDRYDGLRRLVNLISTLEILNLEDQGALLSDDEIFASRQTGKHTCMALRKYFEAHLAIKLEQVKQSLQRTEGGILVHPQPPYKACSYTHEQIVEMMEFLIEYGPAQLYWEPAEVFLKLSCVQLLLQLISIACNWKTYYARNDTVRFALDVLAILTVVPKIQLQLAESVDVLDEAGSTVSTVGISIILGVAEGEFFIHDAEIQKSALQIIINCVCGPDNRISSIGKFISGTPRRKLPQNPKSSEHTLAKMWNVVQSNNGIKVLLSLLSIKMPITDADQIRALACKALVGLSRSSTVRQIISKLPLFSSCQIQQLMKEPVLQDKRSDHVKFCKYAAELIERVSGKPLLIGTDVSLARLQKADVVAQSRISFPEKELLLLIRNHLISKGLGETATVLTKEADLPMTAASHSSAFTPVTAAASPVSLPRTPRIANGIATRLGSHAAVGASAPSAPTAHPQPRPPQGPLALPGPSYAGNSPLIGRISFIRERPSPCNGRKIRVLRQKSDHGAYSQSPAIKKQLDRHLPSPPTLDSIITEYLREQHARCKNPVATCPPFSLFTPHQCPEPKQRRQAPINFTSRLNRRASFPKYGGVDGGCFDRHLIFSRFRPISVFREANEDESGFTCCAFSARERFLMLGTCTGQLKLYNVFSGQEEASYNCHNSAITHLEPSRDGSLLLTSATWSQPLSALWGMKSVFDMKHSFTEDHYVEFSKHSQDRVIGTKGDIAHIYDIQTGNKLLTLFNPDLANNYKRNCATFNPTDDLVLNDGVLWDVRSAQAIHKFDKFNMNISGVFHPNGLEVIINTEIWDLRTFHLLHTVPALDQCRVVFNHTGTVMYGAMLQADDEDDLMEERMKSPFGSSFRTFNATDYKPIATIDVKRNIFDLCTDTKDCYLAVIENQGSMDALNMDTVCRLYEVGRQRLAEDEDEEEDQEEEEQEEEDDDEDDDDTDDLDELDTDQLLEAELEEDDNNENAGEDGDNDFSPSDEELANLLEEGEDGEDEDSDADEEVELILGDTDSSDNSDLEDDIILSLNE
UniProt Q9HCM4: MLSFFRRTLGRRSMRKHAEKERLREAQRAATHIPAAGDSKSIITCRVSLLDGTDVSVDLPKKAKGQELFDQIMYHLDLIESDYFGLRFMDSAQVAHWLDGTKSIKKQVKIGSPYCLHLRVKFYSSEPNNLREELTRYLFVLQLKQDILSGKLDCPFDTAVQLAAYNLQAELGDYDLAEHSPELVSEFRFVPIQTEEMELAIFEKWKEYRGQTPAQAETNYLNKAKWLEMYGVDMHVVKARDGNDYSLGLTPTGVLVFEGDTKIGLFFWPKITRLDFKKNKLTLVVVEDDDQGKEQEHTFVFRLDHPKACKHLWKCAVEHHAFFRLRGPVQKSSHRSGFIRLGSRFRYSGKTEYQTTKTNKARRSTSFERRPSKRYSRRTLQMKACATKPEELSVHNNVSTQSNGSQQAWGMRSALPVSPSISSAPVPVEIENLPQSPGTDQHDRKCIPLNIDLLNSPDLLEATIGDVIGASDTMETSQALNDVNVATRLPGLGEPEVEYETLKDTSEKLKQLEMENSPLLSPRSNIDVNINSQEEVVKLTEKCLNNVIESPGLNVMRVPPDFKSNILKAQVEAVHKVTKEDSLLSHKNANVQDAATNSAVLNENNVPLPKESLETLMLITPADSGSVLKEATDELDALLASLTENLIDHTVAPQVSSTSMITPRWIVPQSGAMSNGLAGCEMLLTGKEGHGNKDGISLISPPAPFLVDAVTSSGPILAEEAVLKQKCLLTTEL
UniProt Q14978: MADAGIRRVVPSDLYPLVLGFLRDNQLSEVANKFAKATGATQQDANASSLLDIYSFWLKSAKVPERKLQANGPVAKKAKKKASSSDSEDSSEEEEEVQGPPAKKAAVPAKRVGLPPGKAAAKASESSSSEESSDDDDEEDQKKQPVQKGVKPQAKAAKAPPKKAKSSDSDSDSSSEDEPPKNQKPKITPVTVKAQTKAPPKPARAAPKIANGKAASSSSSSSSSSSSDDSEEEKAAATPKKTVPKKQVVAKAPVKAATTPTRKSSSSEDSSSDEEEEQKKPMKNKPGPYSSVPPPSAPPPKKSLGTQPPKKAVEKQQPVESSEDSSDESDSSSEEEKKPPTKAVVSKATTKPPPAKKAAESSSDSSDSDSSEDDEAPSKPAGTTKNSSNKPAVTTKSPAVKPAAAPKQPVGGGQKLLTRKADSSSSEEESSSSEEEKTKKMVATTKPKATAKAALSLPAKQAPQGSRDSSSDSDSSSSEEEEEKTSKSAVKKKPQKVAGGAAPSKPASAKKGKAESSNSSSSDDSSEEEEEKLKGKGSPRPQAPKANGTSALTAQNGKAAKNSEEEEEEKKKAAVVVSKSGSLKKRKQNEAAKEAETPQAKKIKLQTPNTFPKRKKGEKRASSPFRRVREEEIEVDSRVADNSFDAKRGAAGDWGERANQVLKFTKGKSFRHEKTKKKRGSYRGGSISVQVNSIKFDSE

Target: SFB-tagged NF2 (human) (UniProt P35240)
Assay: affinity purification with mass spectrometry; HEK293A cells stably expressing the SFB-tagged bait, lysed in NETN buffer; streptavidin beads, biotin elution, then S protein beads; LC-MS/MS

Row | binding | Molecule
1 | binds | CHD1 (from UniProt O14646 1-1710)
2 | binds | DDX41 (from UniProt Q9UJV9 1-622)
3 | binds | LUC7L3 (protein, UniProt O95232 1-432) MISAAQLLDELMGRDRNLAPDEKRSNVRWDHESVCKYYLCGFCPAELFTNTRSDLGPCEKIHDENLRKQYEKSSRFMKVGYERDFLRYLQSLLAEVERRIRRGHARLALSQNQQSSGAAGPTGKNEEKIQVLTDKIDVLLQQIEELGSEGKVEEAQGMMKLVEQLKEERELLRSTTSTIESFAAQEKQMEVCEVCGAFLIVGDAQSRVDDHLMGKQHMGYAKIKATVEELKEKLRKRTEEPDRDERLKKEKQEREEREKEREREREERERKRRREEEEREKERARDRERRKRSRSRSRHSSRTSDRRCSRSRDHKRSRSRERRRSRSRDRRRSRSHDRSERKHRSRSRDRRRSKSRDRKSYKHRSKSRDREQDRKSKEKEKRGSDDKKSSVKSGSREKQSEDTNTESKESDTKNEVNGTSEDIKSEGDTQSN
4 | binds | VANGL1 (endogenous, found by TAP-MS) (protein, UniProt Q8TAA9 1-524) MDTESTYSGYSYYSSHSKKSHRQGERTRERHKSPRNKDGRGSEKSVTIQPPTGEPLLGNDSTRTEEVQDDNWGETTTAITGTSEHSISQEDIARISKDMEDSVGLDCKRYLGLTVASFLGLLVFLTPIAFILLPPILWRDELEPCGTICEGLFISMAFKLLILLIGTWALFFRKRRADMPRVFVFRALLLVLIFLFVVSYWLFYGVRILDSRDRNYQGIVQYAVSLVDALLFIHYLAIVLLELRQLQPMFTLQVVRSTDGESRFYSLGHLSIQRAALVVLENYYKDFTIYNPNLLTASKFRAAKHMAGLKVYNVDGPSNNATGQSRAMIAAAARRRDSSHNELYYEEAEHERRVKKRKARLVVAVEEAFIHIQRLQAEEQQKAPGEVMDPREAAQAIFPSMARALQKYLRITRQQNYHSMESILQHLAFCITNGMTPKAFLERYLSAGPTLQYDKDRWLSTQWRLVSDEAVTNGLRDGIVFVLKCLDFSLVVNVKKIPFIILSEEFIDPKSHKFVLRLQSETSV
5 | binds | AP3B1 (protein, UniProt O00203 1-1094) MSSNSFPYNEQSGGGEATELGQEATSTISPSGAFGLFSSDLKKNEDLKQMLESNKDSAKLDAMKRIVGMIAKGKNASELFPAVVKNVASKNIEIKKLVYVYLVRYAEEQQDLALLSISTFQRALKDPNQLIRASALRVLSSIRVPIIVPIMMLAIKEASADLSPYVRKNAAHAIQKLYSLDPEQKEMLIEVIEKLLKDKSTLVAGSVVMAFEEVCPDRIDLIHKNYRKLCNLLVDVEEWGQVVIIHMLTRYARTQFVSPWKEGDELEDNGKNFYESDDDQKEKTDKKKKPYTMDPDHRLLIRNTKPLLQSRNAAVVMAVAQLYWHISPKSEAGIISKSLVRLLRSNREVQYIVLQNIATMSIQRKGMFEPYLKSFYVRSTDPTMIKTLKLEILTNLANEANISTLLREFQTYVKSQDKQFAAATIQTIGRCATNILEVTDTCLNGLVCLLSNRDEIVVAESVVVIKKLLQMQPAQHGEIIKHMAKLLDSITVPVARASILWLIGENCERVPKIAPDVLRKMAKSFTSEDDLVKLQILNLGAKLYLTNSKQTKLLTQYILNLGKYDQNYDIRDRTRFIRQLIVPNVKSGALSKYAKKIFLAQKPAPLLESPFKDRDHFQLGTLSHTLNIKATGYLELSNWPEVAPDPSVRNVEVIELAKEWTPAGKAKQENSAKKFYSESEEEEDSSDSSSDSESESGSESGEQGESGEEGDSNEDSSEDSSSEQDSESGRESGLENKRTAKRNSKAKGKSDSEDGEKENEKSKTSDSSNDESSSIEDSSSDSESESEPESESESRRVTKEKEKKTKQDRTPLTKDVSLLDLDDFNPVSTPVALPTPALSPSLMADLEGLHLSTSSSVISVSTPAFVPTKTHVLLHRMSGKGLAAHYFFPRQPCIFGDKMVSIQITLNNTTDRKIENIHIGEKKLPIGMKMHVFNPIDSLEPEGSITVSMGIDFCDSTQTASFQLCTKDDCFNVNIQPPVGELLLPVAMSEKDFKKEQGVLTGMNETSAVIIAAPQNFTPSVIFQKVVNVANVGAVPSGQDNIHRFAAKTVHSGSLMLVTVELKEGSTAQLIINTEKTVIGSVLLRELKPVLSQG
6 | binds | AP3M1 (protein, UniProt Q9Y2T2 1-418) MIHSLFLINCSGDIFLEKHWKSVVSQSVCDYFFEAQEKAADVENVPPVISTPHHYLISIYRDKLFFVSVIQTEVPPLFVIEFLHRVADTFQDYFGECSEAAIKDNVVIVYELLEEMLDNGFPLATESNILKELIKPPTILRSVVNSITGSSNVGDTLPTGQLSNIPWRRAGVKYTNNEAYFDVVEEIDAIIDKSGSTVFAEIQGVIDACIKLSGMPDLSLSFMNPRLLDDVSFHPCIRFKRWESERVLSFIPPDGNFRLISYRVSSQNLVAIPVYVKHSISFKENSSCGRFDITIGPKQNMGKTIEGITVTVHMPKVVLNMNLTPTQGSYTFDPVTKVLTWDVGKITPQKLPSLKGLVNLQSGAPKPEENPSLNIQFKIQQLAISGLKVNRLDMYGEKYKPFKGVKYVTKAGKFQVRT
7 | binds | RNPS1 (protein, UniProt Q15287 1-305) MDLSGVKKKSLLGVKENNKKSSTRAPSPTKRKDRSDEKSKDRSKDKGATKESSEKDRGRDKTRKRRSASSGSSSTRSRSSSTSSSGSSTSTGSSSGSSSSSASSRSGSSSTSRSSSSSSSSGSPSPSRRRHDNRRRSRSKSKPPKRDEKERKRRSPSPKPTKVHIGRLTRNVTKDHIMEIFSTYGKIKMIDMPVERMHPHLSKGYAYVEFENPDEAEKALKHMDGGQIDGQEITATAVLAPWPRPPPRRFSPPRRMLPPPPMWRRSPPRMRRRSRSPRRRSPVRRRSRSPGRRRHRSRSSSNSSR

The remaining lines, values behind:

Row | Molecule | binding
8 | DCAF1 (from UniProt Q9Y4B6 1-1507) | binds
9 | EPB41L5 (from UniProt Q9HCM4 1-733) | binds
10 | NOLC1 (from UniProt Q14978 1-699) | binds
11 | ZC3H18 (protein, UniProt Q86VM9 1-953) MDVAESPERDPHSPEDEEQPQGLSDDDILRDSGSDQDLDGAGVRASDLEDEESAARGPSQEEEDNHSDEEDRASEPKSQDQDSEVNELSRGPTSSPCEEEGDEGEEDRTSDLRDEASSVTRELDEHELDYDEEVPEEPAPAVQEDEAEKAGAEDDEEKGEGTPREEGKAGVQSVGEKESLEAAKEKKKEDDDGEIDDGEIDDDDLEEGEVKDPSDRKVRPRPTCRFFMKGNCTWGMNCRFIHPGVNDKGNYSLITKADPFPPNGAPPLGPHPLMPANPWGGPVVDEILPPPPPEPPTESAWERGLRHAKEVLKKATIRKEQEPDFEEKRFTVTIGEDEREFDKENEVFRDWNSRIPRDVRDTVLEPYADPYYDYEIERFWRGGQYENFRVQYTETEPYHNYRERERERERENRQRERERERERDRERERRQRERERERERERDKERQRRKEEWERERAKRDEKDRQHRDRDREKEREKEKGKPKPRSPQPPSRQAEPPKKEAATTGPQVKRADEWKDPWRRSKSPKKKLGVSVSPSRARRRRKTSASSASASNSSRSSSRSSSYSGSGSSRSRSRSSSYSSYSSRSSRHSSFSGSRSRSRSFSSSPSPSPTPSPHRPSIRTKGEPAPPPGKAGEKSVKKPAPPPAPPQATKTTAPVPEPTKPGDPREARRKERPARTPPRRRTLSGSGSGSGSSYSGSSSRSRSLSVSSVSSVSSATSSSSSAHSVDSEDMYADLASPVSSASSRSPAPAQTRKEKGKSKKEDGVKEEKRKRDSSTQPPKSAKPPAGGKSSQQPSTPQQAPPGQPQQGTFVAHKEIKLTLLNKAADKGSRKRYEPSDKDRQSPPPAKRPNTSPDRGSRDRKSGGRLGSPKPERQRGQNSKAPAAPADRKRQLSPQSKSSSKVTSVPGKASDPGAASTKSGKASTLSRREELLKQLKAVEDAIARKRAKIPGKA | binds
12 | PCCB (protein, UniProt P05166 29-539) CSQATSVNERIENKRRTALLGGGQRRIDAQHKRGKLTARERISLLLDPGSFVESDMFVEHRCADFGMAADKNKFPGDSVVTGRGRINGRLVYVFSQDFTVFGGSLSGAHAQKICKIMDQAITVGAPVIGLNDSGGARIQEGVESLAGYADIFLRNVTASGVIPQISLIMGPCAGGAVYSPALTDFTFMVKDTSYLFITGPDVVKSVTNEDVTQEELGGAKTHTTMSGVAHRAFENDVDALCNLRDFFNYLPLSSQDPAPVRECHDPSDRLVPELDTIVPLESTKAYNMVDIIHSVVDEREFFEIMPNYAKNIIVGFARMNGRTVGIVGNQPKVASGCLDINSSVKGARFVRFCDAFNIPLITFVDVPGFLPGTAQEYGGIIRHGAKLLYAFAEATVPKVTVITRKAYGGAYDVMSSKHLCGDTNYAWPTAEIAVMGAKGAVEIIFKGHENVEAAQAEYIEKFANPFPAAVRGFVDDIIQPSSTRARICCDLDVLASKKVQRPWRKHANIPL | binds
13 | FNBP4 (protein, UniProt Q8N3X1 1-1017) MGKKSRAVPGRRPILQLSPPGPRGSTPGRDPEPEPDTEPDSTAAVPSQPAPSAATTTTTAVTAAAASDDSPSEDEQEAVQEVPRVVQNPPKPVMTTRPTAVKATGGLCLLGAYADSDDDDNDVSEKLAQSKETNGNQSTDIDSTLANFLAEIDAITAPQPAAPVGASAPPPTPPRPEPKEAATSTLSSSTSNGTDSTQTSGWQYDTQCSLAGVGIEMGDWQEVWDENTGCYYYWNTQTNEVTWELPQYLATQVQGLQHYQPSSVPGAETSFVVNTDIYSKEKTISVSSSKSGPVIAKREVKKEVNEGIQALSNSEEEKKGVAASLLAPLLPEGIKEEEERWRRKVICKEEPVSEVKETSTTVEEATTIVKPQEIMLDNIEDPSQEDLCSVVQSGESEEEEEQDTLELELVLERKKAELRALEEGDGSVSGSSPRSDISQPASQDGMRRLMSKRGKWKMFVRATSPESTSRSSSKTGRDTPENGETAIGAENSEKIDENSDKEMEVEESPEKIKVQTTPKVEEEQDLKFQIGELANTLTSKFEFLGINRQSISNFHVLLLQTETRIADWREGALNGNYLKRKLQDAAEQLKQYEINATPKGWSCHWDRDHRRYFYVNEQSGESQWEFPDGEEEEEESQAQENRDETLAKQTLKDKTGTDSNSTESSETSTGSLCKESFSGQVSSSSLMPLTPFWTLLQSNVPVLQPPLPLEMPPPPPPPPESPPPPPPPPPPAEDGEIQEVEMEDEGSEEPPAPGTEEDTPLKPSAQTTVVTSQSSVDSTISSSSSTKGIKRKATEISTAVVQRSATIGSSPVLYSQSAIATGHQAAGIGNQATGIGHQTIPVSLPAAGMGHQARGMSLQSNYLGLAAAPAIMSYAECSVPIGVTAPSLQPVQARGAVPTATIIEPPPPPPPPPPPPPPAPKMPPPEKTKKGRKDKAKKSKTKMPSLVKKWQSIQRELDEEDNSSSSEEDRESTAQKRIEEWKQQQLVSGMAERNANFEALPEDWRARLKRRKMAPNT | binds

These are yes or no findings as the source states them, for the method shown. Binding seen in cells or lysates may run through a third protein. Here binding means that the protein was enriched with, or labelled near, the bait; the list need not be complete. Tags and fused reporters may be left off the sequences shown.
